Some of the results follow.
Target: T1, OsSMF1 (Oryza sativa, UniProt Q6ZLB0 1-436)
T1 sequence: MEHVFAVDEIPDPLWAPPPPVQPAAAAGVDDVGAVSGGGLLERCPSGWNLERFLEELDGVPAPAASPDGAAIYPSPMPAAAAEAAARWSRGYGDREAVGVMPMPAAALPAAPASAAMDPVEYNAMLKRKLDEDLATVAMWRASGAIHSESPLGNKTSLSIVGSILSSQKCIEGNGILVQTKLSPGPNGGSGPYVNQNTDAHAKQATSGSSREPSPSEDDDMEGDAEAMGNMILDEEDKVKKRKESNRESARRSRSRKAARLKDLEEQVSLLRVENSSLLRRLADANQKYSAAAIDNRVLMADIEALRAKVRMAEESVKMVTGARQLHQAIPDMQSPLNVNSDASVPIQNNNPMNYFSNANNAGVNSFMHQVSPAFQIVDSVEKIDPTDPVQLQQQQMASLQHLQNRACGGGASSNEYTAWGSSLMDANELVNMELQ
Assay: protein-binding microarray (RPBM); PBS, 2% BSA, 51.3 ng/ul salmon testes DNA, 50 uM zinc acetate, 200 nM TF, 25 C, 1 h; high values mean tight binding
Conditions: protein: recombinant; tags: N-terminal polyhistidine and DsRed monomer fusion (pET32a); chain copies: 2; label: CyDye5-dUTP incorporated in the synthesized complementary strand; 3' TTTTT single-stranded linker to array surface; dsDNA, one strand shown
Procedure, shortened: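 Transcription factors were made in E. coli BL21-CodonPlus as N-terminal fusions to a polyhistidine tag and DsRed, then purified on Ni–NTA. After primer extension with Cy5-dUTP and blocking with 2% BSA, a custom Agilent array was exposed for 1 h at 25 °C to 200 nM protein in PBS, 2% BSA, salmon testes DNA and 50 µM zinc acetate. Washed arrays were scanned on an Axon 4000B, and the binding signal is per-feature fluorescence intensity in arbitrary units.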

Sequence	binding signal
TCCCCATCTCCCTTCATCTCCCTCCCATCTCCTCTCTCCGCGGAGTCACCTAGTGCAG	29300 fluorescence intensity (a.u.)
AAACGGCGGACGCGTGGCGTGCGGCACGCTCCACCGACCTCGGAGTCACCTAGTGCAG	4260 fluorescence intensity (a.u.)
CAAATCCCACCTGTCCAACCAAGGACCAACCAACCCCGCGCGGAGTCACCTAGTGCAG	5060 fluorescence intensity (a.u.)
CTGCTGCTGATCTGTTGCATTTGCCCTGTTCTTGGCGCTCCGGAGTCACCTAGTGCAG	3520 fluorescence intensity (a.u.)
TCCCAGGGCCCATCAATTAGTAGTGAAACAAATCCGGTGGCGGAGTCACCTAGTGCAG	3230 fluorescence intensity (a.u.)
ATCGCGCGTCGTCTCCACCTTTCTTGCTTGTGCCACCAAGCGGAGTCACCTAGTGCAG	3420 fluorescence intensity (a.u.)
CCCACCACCTCGTCCTCACCGTCATCGCTGGCGCTGCCTGCGGAGTCACCTAGTGCAG	4710 fluorescence intensity (a.u.)
CCGCCTTGCGTGGCTGAACTTCTTCTGATGGTCCCCGCCTCGGAGTCACCTAGTGCAG	3290 fluorescence intensity (a.u.)
CCGCGCCTCCGCCTCCTCCGCGTCCCCGCGCCTCTCCTTCCGGAGTCACCTAGTGCAG	3180 fluorescence intensity (a.u.)
TCAAAATCGAACCAGTGTTGCGTCATACGAGTGTCGTTTACGGAGTCACCTAGTGCAG	4960 fluorescence intensity (a.u.)
CGTTAATTTTCGCGAACTGCTAAACAATGTTTCATACAAACGGAGTCACCTAGTGCAG	3200 fluorescence intensity (a.u.)
GCGCGCCACGCCACGCCACGCGCCCACGCCTCGCCTCGCCCGGAGTCACCTAGTGCAG	10000 fluorescence intensity (a.u.)
CCCTTGCAAGAGCTCTCACACCCTTGTGCATTTAGTTTATCGGAGTCACCTAGTGCAG	3680 fluorescence intensity (a.u.)
AGAAACAAGCATATGCATCATCCATCTCCTTATCGCGACCCGGAGTCACCTAGTGCAG	3310 fluorescence intensity (a.u.)
TTTCTTAATGTGATGTATGACGTAAACCATCACCCTTGTTCGGAGTCACCTAGTGCAG	6400 fluorescence intensity (a.u.)
GAACCGTGCCGTCCTGCCGTGAATCAGAACTTTTCCTAGTCGGAGTCACCTAGTGCAG	3280 fluorescence intensity (a.u.)
TTGAAGCCCACCACACCACCTCACCTCGCCGCCGCCGCCACGGAGTCACCTAGTGCAG	4260 fluorescence intensity (a.u.)
AGCAGATCCGAGTTGGCATCGATGAGGTGGCATCAGTGGTCGGAGTCACCTAGTGCAG	12000 fluorescence intensity (a.u.)
AATCTTCTTGCAGTTCCACGAACTAGGAATACACGCGTCGCGGAGTCACCTAGTGCAG	3680 fluorescence intensity (a.u.)
TGTTTACTGTAGCGTCACATAGTCTAGTCATAGATTCGTCCGGAGTCACCTAGTGCAG	5460 fluorescence intensity (a.u.)
TAGCGTATTATCAAGGGTGGCAACTGGCCATGCAGTGAATCGGAGTCACCTAGTGCAG	3190 fluorescence intensity (a.u.)

Some of the entries so far, in CSV form.
Sequence,binding signal
CCCACCACCTCGTCCTCACCGTCATCGCTGGCGCTGCCTGCGGAGTCACCTAGTGCAG,4710 fluorescence intensity (a.u.)
CCGCCTTGCGTGGCTGAACTTCTTCTGATGGTCCCCGCCTCGGAGTCACCTAGTGCAG,3290 fluorescence intensity (a.u.)
CCGCGCCTCCGCCTCCTCCGCGTCCCCGCGCCTCTCCTTCCGGAGTCACCTAGTGCAG,3180 fluorescence intensity (a.u.)
TCAAAATCGAACCAGTGTTGCGTCATACGAGTGTCGTTTACGGAGTCACCTAGTGCAG,4960 fluorescence intensity (a.u.)
CGTTAATTTTCGCGAACTGCTAAACAATGTTTCATACAAACGGAGTCACCTAGTGCAG,3200 fluorescence intensity (a.u.)
GCGCGCCACGCCACGCCACGCGCCCACGCCTCGCCTCGCCCGGAGTCACCTAGTGCAG,10000 fluorescence intensity (a.u.)
CCCTTGCAAGAGCTCTCACACCCTTGTGCATTTAGTTTATCGGAGTCACCTAGTGCAG,3680 fluorescence intensity (a.u.)
AGAAACAAGCATATGCATCATCCATCTCCTTATCGCGACCCGGAGTCACCTAGTGCAG,3310 fluorescence intensity (a.u.)

The results go on.

Sequence	binding signal
TCTAGATGCACTCATAGCATGACACATCAATTAGTAAGAACGGAGTCACCTAGTGCAG	3820 fluorescence intensity (a.u.)
TCGTCGTCGTCGTCGTCGTCGTCGTCGTCCTCTTGTGATCCGGAGTCACCTAGTGCAG	3410 fluorescence intensity (a.u.)
GTGTGTGTGCGAGTGAGTGTTTGGGCTGACAAGTGGTATCCGGAGTCACCTAGTGCAG	3890 fluorescence intensity (a.u.)
TTTATCTTTCTTTGTTTGTCCCTTGCATCATTACTCATATCGGAGTCACCTAGTGCAG	3320 fluorescence intensity (a.u.)
GCAAAATTTGACATGTAAGCTGCTAGGACTAGTAGTAATGCGGAGTCACCTAGTGCAG	3780 fluorescence intensity (a.u.)
ACACCTGCTCGGTCATCCACGAGCACTATGACTGTATGAACGGAGTCACCTAGTGCAG	6010 fluorescence intensity (a.u.)
GCCATCCTCACGCACACGCCACGTGCTCGACGAAATGCCGCGGAGTCACCTAGTGCAG	4190 fluorescence intensity (a.u.)
CTCGCATGCCAAGTGTGCGCCGCCCGCCGCGCCGCGCCGCCGGAGTCACCTAGTGCAG	3180 fluorescence intensity (a.u.)
TCCTTCCACCACCACCTCCTTCTTTAGGAGTAGCAGCAGCCGGAGTCACCTAGTGCAG	26500 fluorescence intensity (a.u.)
ATCGGGGACACGCGTACGGCGGAAGATCCCGTGGCATTTCCGGAGTCACCTAGTGCAG	4990 fluorescence intensity (a.u.)
CGGGCACTCTCGTCTCCGACGTGAAGGCCCGAGATCACTGCGGAGTCACCTAGTGCAG	60900 fluorescence intensity (a.u.)
GCGAGCGCCACGCACCCCGGACCCGGTCACGGCACGGCCCCGGAGTCACCTAGTGCAG	4260 fluorescence intensity (a.u.)
TAGCCAACCAGGTCATCTTCTCTCCTTCCCCGGCAGTTATCGGAGTCACCTAGTGCAG	4100 fluorescence intensity (a.u.)
TACGTAAGATAGCTAGATGATTATGTCTTTCCGTATTGTTCGGAGTCACCTAGTGCAG	5220 fluorescence intensity (a.u.)
TGCCAAATGGCATATCGATAATGACATGGCTCGAATTAACCGGAGTCACCTAGTGCAG	3900 fluorescence intensity (a.u.)
ACTGATGCCACCTTACCCATGTCCACGCCTTCCAGTGTTGCGGAGTCACCTAGTGCAG	4950 fluorescence intensity (a.u.)
TAATATATGTTGAGTTAATGCCATGTCACGCTTGCTCTATCGGAGTCACCTAGTGCAG	13000 fluorescence intensity (a.u.)
ATAACTACTTGATATGTGTCACCACAAGATTTACACAAACCGGAGTCACCTAGTGCAG	4810 fluorescence intensity (a.u.)
GGTAATGGCGTTTCTGGTCCTACCTGGATGCACTGGGTCTCGGAGTCACCTAGTGCAG	3180 fluorescence intensity (a.u.)
TGCCGGTCCGACGGCCAGGATCCGTCCACGTGTCCTCCCGCGGAGTCACCTAGTGCAG	16200 fluorescence intensity (a.u.)
GGGGCGCCGGGAAGGAGGGCGCTGTGTGGGAGGGAGGGAGCGGAGTCACCTAGTGCAG	3370 fluorescence intensity (a.u.)
